Test results from PMC7167255.
No constants are given. Whether binding was seen depends on the method and setting. In cells and extracts the contact can be indirect. Some binding calls cover weakened binding; strength is not graded here.

By UniProt entry, the sequences of proteins in these tests, tags left out.
UniProt Q969H0: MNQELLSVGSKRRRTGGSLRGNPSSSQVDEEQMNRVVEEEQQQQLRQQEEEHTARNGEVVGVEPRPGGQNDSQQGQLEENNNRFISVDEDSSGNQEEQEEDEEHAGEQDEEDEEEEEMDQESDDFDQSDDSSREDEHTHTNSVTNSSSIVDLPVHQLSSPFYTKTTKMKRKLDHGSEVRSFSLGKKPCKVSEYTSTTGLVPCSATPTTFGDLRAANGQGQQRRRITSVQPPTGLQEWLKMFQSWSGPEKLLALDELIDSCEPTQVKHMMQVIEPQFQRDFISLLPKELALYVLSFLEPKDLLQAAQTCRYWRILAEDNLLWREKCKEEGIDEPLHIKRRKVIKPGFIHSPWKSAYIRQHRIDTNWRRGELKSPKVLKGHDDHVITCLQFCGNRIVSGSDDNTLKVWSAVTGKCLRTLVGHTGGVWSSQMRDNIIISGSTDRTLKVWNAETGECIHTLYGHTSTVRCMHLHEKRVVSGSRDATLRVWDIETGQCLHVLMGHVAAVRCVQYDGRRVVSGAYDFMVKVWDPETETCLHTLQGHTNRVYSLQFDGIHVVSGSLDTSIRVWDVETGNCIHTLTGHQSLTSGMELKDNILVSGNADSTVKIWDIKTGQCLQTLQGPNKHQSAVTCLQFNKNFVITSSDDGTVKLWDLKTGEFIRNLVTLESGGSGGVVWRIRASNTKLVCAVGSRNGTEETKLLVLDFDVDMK

Target: F-box and WD40 domain protein 7 (FBXW7) (human (endogenous in endometrial cancer cell lines)) (UniProt Q969H0)
Assay: co-IP; EC cells lysed in RIPA buffer; 4 ug primary antibody with 1000 ug total protein, 4°C for 8 h; protein A Sepharose beads, 4°C for 1 h; Western blot

B1: Serine/threonine/tyrosine interacting protein (STYX) (protein, UniProt Q8WUJ0 1-223)
chain: MEDVKLEFPSLPQCKEDAEEWTYPMRREMQEILPGLFLGPYSSAMKSKLPVLQKHGITHIICIRQNIEANFIKPNFQQLFRYLVLDIADNPVENIIRFFPMTKEFIDGSLQMGGKVLVHGNAGISRSAAFVIAYIMETFGMKYRDAFAYVQERRFCINPNAGFVHQLQEYEAIYLAKLTIQMMSPLQIERSLSVHSGTTGSLKRTHEEEDDFGTMQVATAQNG
binding: binds
